# Counter-ions that a name gives are not always drawn. Some of the results follow. Small differences around the control level are noise.
# Test system: hPSC-derived cortical neurons (WA09)
# Experiment: nucleus area z-score vs screen plate; higher = larger nuclei (more mature)
# Conditions: 5 µM; treatment: days 7-14 after plating, readout day 21
row,Structure (SMILES),nucleus area z-score
1,CN(NC(=O)CC(=O)NN(C)C(=S)c1ccccc1)C(=S)c1ccccc1 [Elesclomol (STA-4783)],0.101
2,O=C(Cc1cccc(OC(F)(F)F)c1)Nc1ccc(CCCCc2nnc(NC(=O)Cc3ccccn3)s2)nn1,-0.401
3,COc1ccc(CC(C)NCC(O)c2ccc(O)c(NC=O)c2)cc1 (stereo not drawn) [Formoterol Hemifumarate],-0.938
4,O=C(C1CCCCC1)N1CC(=O)N2CCc3ccccc3C2C1 (stereo not drawn) [Praziquantel],-0.491
5,COc1ccc(C(=O)NCc2ccc(OCCN(C)C)cc2)cc1OC [Itopride hydrochloride],-0.0856
6,CN(CCOc1ccc(CC2SC(=O)NC2=O)cc1)c1ccccn1 (stereo not drawn) [Rosiglitazone],-0.00733
7,Cc1cc(F)c(C(=O)Nc2cccc(-c3nncn3C(C)C)n2)cc1-n1cnc(C2CC2)c1 [Selonsertib (GS-4997)],0.0333
8,C[N+](C)(CCOc1ccccc1)Cc1ccccc1.O=C([O-])c1cc2ccccc2cc1O [Bephenium Hydroxynaphthoate],0.545

# Reformatted tab-delimited: 2 of the compounds above
row	Structure (SMILES)	nucleus area z-score
2	O=C(Cc1cccc(OC(F)(F)F)c1)Nc1ccc(CCCCc2nnc(NC(=O)Cc3ccccn3)s2)nn1	-0.401
3	COc1ccc(CC(C)NCC(O)c2ccc(O)c(NC=O)c2)cc1 (stereo not drawn) [Formoterol Hemifumarate]	-0.938
